Data published in US20210253643A1 (The University of British Columbia, priority 2018, published 2021).
HELM strings list residues between dots; [ac] is acetyl, [am] amide, other brackets name non-standard units. No end group written: not given here.

Experiment: peptide synthesis
Conditions: whole synthesis

## DWLKAFYDKVAEKLKEAAPDWFKAFYDKVAEKFKEAF
  purity (crude or final not stated): 82%

## PEPTIDE1{F.A.E.K.F.K.E.A.V.K.D.Y.F.A.K.F.W.D.P.A.A.E.K.L.K.E.A.V.K.D.Y.F.A.K.L.W.D}$$$$V2.0
  purity (crude or final not stated): 85%
